# Test results as given in PubChem BioAssay AID2551 (National Center for Advancing Translational Sciences (NCATS), 2010).
# Chains of the proteins cited; added tags and fusions are not shown. Lines headed by an entry give the natural chain unless they say otherwise; changes in a name come on top.
# UniProt P51450: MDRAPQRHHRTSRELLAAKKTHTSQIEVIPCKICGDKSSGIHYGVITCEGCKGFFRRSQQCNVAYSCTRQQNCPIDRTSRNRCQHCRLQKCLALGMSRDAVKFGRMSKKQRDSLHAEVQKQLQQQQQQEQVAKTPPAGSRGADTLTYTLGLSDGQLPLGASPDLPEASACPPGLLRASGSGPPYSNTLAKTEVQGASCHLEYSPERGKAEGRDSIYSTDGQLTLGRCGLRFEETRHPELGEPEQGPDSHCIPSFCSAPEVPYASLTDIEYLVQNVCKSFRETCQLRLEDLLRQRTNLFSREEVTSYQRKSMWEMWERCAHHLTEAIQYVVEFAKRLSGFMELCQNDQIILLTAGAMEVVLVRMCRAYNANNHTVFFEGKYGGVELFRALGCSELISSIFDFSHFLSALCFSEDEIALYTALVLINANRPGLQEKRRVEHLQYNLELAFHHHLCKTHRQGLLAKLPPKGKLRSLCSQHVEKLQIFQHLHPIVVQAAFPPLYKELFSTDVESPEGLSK
# Out of some 310,000 compounds screened, about 17,000 (5.5%) were called active. Inconclusive results, whose numbers are uncertain, are shown with a selection of clear calls. Calls follow the shape of the dose curve; as a rule, active = well fitted inhibition curve with a large enough effect; inconclusive = small, poorly fitted or top-dose-only effect, or effect the other way; inactive = no such curve, though single readings can be large or run the other way. Potencies beside an inconclusive call are fits to weak or partial responses and may not hold up.
# Target: Nuclear receptor ROR-gamma (Mus musculus) (UniProt P51450)
# Assay: qHTS for inhibitors of ROR gamma transcriptional activity; also: nearly all actives have a fitted effect of over 60% in size
# Conditions: Drosophila S2 Gal4-RORgamma UAS-luciferase reporter, 20 h; series mostly up to 53.6 µM
# Method in brief: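 Luciferase reporter read in Schneider cells carrying Gal4-RORγ (mouse) and UAS-Photinus luciferase; cells given compound 1 h before 700 uM copper sulfate induction, then incubated 20 h at ambient temperature.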
# Potency is read from the fitted curve at half-maximal effect.
row,SMILES,Potency
1,CCOC(=O)c1ccc(N2C(=O)CC(SCC(=O)Nc3ccc(S(N)(=O)=O)cc3)C2=O)cc1 (stereo not given),"inconclusive: 25.1 µM [inhibitor, single point]"
2,CCN(CC)S(=O)(=O)c1cccc(C(=O)N/N=C(\C)c2cccs2)c1,active: 3.55 µM
3,Cc1cc2nc(/C=C/c3cccnc3)[nH]c2cc1C,"inconclusive: 3.98 µM [activator, single point]"
4,O=S(=O)(NCc1ccccc1)c1ccc(S(=O)(=O)N(Cc2ccccn2)C2CCCC2)cc1,"inconclusive: 11.2 µM [activator, single point]"
5,O=C(c1cc(COc2ccc3ncccc3c2)on1)N1CCCCCC1,"inconclusive: 17.8 µM [inhibitor, single point]"
6,CCCC(=O)c1ccc(N2CCN(C(=O)OCC)CC2)c(F)c1,"inconclusive: 12.6 µM [activator, partial curve]"
7,COCCCn1c(=O)c2ccccc2n(Cc2ccccc2)c1=O,"inconclusive: 25.1 µM [activator, single point]"
8,CC(NC(=O)c1ccccc1OC(F)F)c1ccc(-n2ccnc2)cc1 (stereo not given),inactive
9,CC(C)CC(COCc1ccc(C(F)(F)F)cc1)N1CCN(C(=O)c2ccc(C(F)(F)F)cc2)CCC1=O (stereo not given),"inconclusive: 17.8 µM [activator, single point]"
10,O=C(N/N=C/C=C\c1ccccc1[N+](=O)[O-])c1ccco1,"inconclusive: 35.5 µM [inhibitor, single point]"
11,C[C@H](NCc1ccccc1)c1ccccc1,inactive
12,CC(C)[C@H](NC(=O)C1CCN(S(=O)(=O)c2ccccc2)CC1)C(=O)NCc1ccccc1,inactive
13,Cc1ccc(NC(=O)C2CC2c2ccccc2)c([N+](=O)[O-])c1 (stereo not given),"inconclusive: 10 µM [activator, partial curve]"
14,CC(C)Cn1c(SCC(=O)N2CCc3ccccc3C2)nc2cc(Cl)ccc2c1=O,"inconclusive: 35.5 µM [inhibitor, single point]"
15,COc1ccccc1/C=C/CN1CCNC(=O)C1CC(=O)NCCc1cnccn1 (stereo not given),inactive
16,CC(Sc1ccccc1)C(=O)NN=C1CCCCCC1 (stereo not given),inactive
17,C=C(C)C1CC[C@]2(CO)CC[C@@]3(C)[C@H](CCC4[C@@]5(C)CCC(O)C(C)(C)C5CC[C@@]43C)C12 (stereo not given in full),inactive
18,COc1ccc(NC(=O)CC(c2ccccc2)c2ccco2)cc1 (stereo not given),"inconclusive: 25.1 µM [activator, partial curve, poor fit]"
19,COc1ccc(C2=NN(C3=NN=C(N)Cc4ncnn43)C(O)(C(F)(F)F)C2)cc1 (stereo not given),active: 8.91 µM
20,CN(C)c1ccc(/C=N/NC(=O)c2ccc(Cn3cc(Br)cn3)o2)cc1,"inconclusive: 35.5 µM [inhibitor, single point]"
21,COc1ccc(C(=O)N(O)c2ccccc2)cc1,"inconclusive: 3.16 µM [inhibitor, single point]"
22,O=C(Cc1ccccc1)N/N=C/C=C/c1cccc([N+](=O)[O-])c1,"inconclusive: 35.5 µM [inhibitor, single point]"
23,CC1CN(C(=O)CCN2C(=O)c3ccccc3C2=O)CC(C)O1 (stereo not given),"inconclusive: 0.708 µM [activator, full curve]"
24,Cc1cccc(N2CCN(S(=O)(=O)c3cccc4nonc34)CC2C)c1 (stereo not given),"inconclusive: 14.1 µM [activator, single point]"
25,O=[N+]([O-])c1ccc(/C=N/NC(=S)Nc2ccccc2C(F)(F)F)o1,active: 11.2 µM

# Shown with bars between the fields: 15 of the compounds above
row | SMILES | Potency
9 | CC(C)CC(COCc1ccc(C(F)(F)F)cc1)N1CCN(C(=O)c2ccc(C(F)(F)F)cc2)CCC1=O (stereo not given) | inconclusive: 17.8 µM [activator, single point]
10 | O=C(N/N=C/C=C\c1ccccc1[N+](=O)[O-])c1ccco1 | inconclusive: 35.5 µM [inhibitor, single point]
11 | C[C@H](NCc1ccccc1)c1ccccc1 | inactive
12 | CC(C)[C@H](NC(=O)C1CCN(S(=O)(=O)c2ccccc2)CC1)C(=O)NCc1ccccc1 | inactive
13 | Cc1ccc(NC(=O)C2CC2c2ccccc2)c([N+](=O)[O-])c1 (stereo not given) | inconclusive: 10 µM [activator, partial curve]
14 | CC(C)Cn1c(SCC(=O)N2CCc3ccccc3C2)nc2cc(Cl)ccc2c1=O | inconclusive: 35.5 µM [inhibitor, single point]
15 | COc1ccccc1/C=C/CN1CCNC(=O)C1CC(=O)NCCc1cnccn1 (stereo not given) | inactive
16 | CC(Sc1ccccc1)C(=O)NN=C1CCCCCC1 (stereo not given) | inactive
17 | C=C(C)C1CC[C@]2(CO)CC[C@@]3(C)[C@H](CCC4[C@@]5(C)CCC(O)C(C)(C)C5CC[C@@]43C)C12 (stereo not given in full) | inactive
18 | COc1ccc(NC(=O)CC(c2ccccc2)c2ccco2)cc1 (stereo not given) | inconclusive: 25.1 µM [activator, partial curve, poor fit]
19 | COc1ccc(C2=NN(C3=NN=C(N)Cc4ncnn43)C(O)(C(F)(F)F)C2)cc1 (stereo not given) | active: 8.91 µM
20 | CN(C)c1ccc(/C=N/NC(=O)c2ccc(Cn3cc(Br)cn3)o2)cc1 | inconclusive: 35.5 µM [inhibitor, single point]
21 | COc1ccc(C(=O)N(O)c2ccccc2)cc1 | inconclusive: 3.16 µM [inhibitor, single point]
22 | O=C(Cc1ccccc1)N/N=C/C=C/c1cccc([N+](=O)[O-])c1 | inconclusive: 35.5 µM [inhibitor, single point]
23 | CC1CN(C(=O)CCN2C(=O)c3ccccc3C2=O)CC(C)O1 (stereo not given) | inconclusive: 0.708 µM [activator, full curve]

# (more compounds)

row,SMILES,Potency
1,O=C(CSCc1cc(=O)[nH][nH]1)Nc1ccc(F)cc1,inactive
2,Cc1cccc(NC(=O)c2ccc3c(c2)OCCO3)c1,"inconclusive: 11.2 µM [inhibitor, single point]"
3,Fc1ccccc1CN1CCCCCCC1,inactive
4,C/C(=N\NC(=O)c1ccc(O)cc1O)c1cccnc1,active: 5.62 µM
5,CC(=O)N1CCc2cc(C(=O)CN3CCN(C(=O)c4ccco4)CC3)ccc21,"inconclusive: 6.31 µM [inhibitor, single point]"
6,O=C(CSc1nnc(Cn2nnc3ccccc32)o1)N(Cc1ccc(F)cc1)c1ccccc1,"inconclusive: 2 µM [activator, single point]"
7,CON(C)S(=O)(=O)c1cccc(C(=O)NC2CCSc3ccccc32)c1 (stereo not given),"inconclusive: 25.1 µM [activator, single point]"
8,COc1ccc(N2CCN(c3c(S(=O)(=O)c4ccccc4)cnc4ccc(OC)cc34)CC2)cc1,"inconclusive: 3.16 µM [activator, partial curve, poor fit]"
9,CCCC(=O)Nc1ccc2c(c1)nc(CCN1CCN(c3ccccn3)CC1)n2C,inactive
10,COc1ccc2c(c1)SC(C)CC2=O (stereo not given),inactive
11,Cc1ccccc1NC(=O)CSc1nc2ccccc2o1,"inconclusive: 3.16 µM [activator, full curve, poor fit]"
12,CCCCC[C@H](O)/C=C/[C@H]1C=CC(=O)[C@@H]1C/C=C\CCCC(=O)O,"inconclusive: 2.82 µM [activator, partial curve]"
13,Cc1cccc(/C=N/NC(=O)NC23CC4CC(CC(C4)C2)C3)n1,"inconclusive: 0.141 µM [activator, full curve, poor fit]"
14,Cc1ccc2[nH]c(-c3cccc(N)c3)cc2c1,"inconclusive: 0.447 µM [activator, full curve, poor fit]"
15,COc1ccccc1N1CCN(/N=C/c2cccc(Cl)c2)CC1,"inconclusive: 20 µM [activator, partial curve]"
16,CC(=O)Nc1nc2ccccc2n1Cc1ccccc1C,active: 2 µM
17,CCCCN(C)C(=O)c1ccc(CS(=O)(=O)c2ccccc2C)o1,"inconclusive: 1 µM [activator, partial curve]"
18,CCOC1=NN(c2ncc(C(F)(F)F)cc2Cl)C(=O)C1,inactive
19,C=CCn1c(Cc2nc3ccc(Cl)cc3[nH]2)n[nH]c1=S,"inconclusive: 25.1 µM [inhibitor, single point]"
20,COc1ccc(/C=C/C(=O)Oc2ccc(C)cc2)cc1,"inconclusive: 35.5 µM [inhibitor, single point]"
21,CCOc1ccccc1NC(=O)c1nc[nH]c1C(=O)Nc1ccccc1OCC,active: 2 µM
22,COCCn1c(SCc2nc3sc(C(=O)OC)c(C)c3c(=O)[nH]2)nc2ccccc21,"inconclusive: 5.62 µM [inhibitor, full curve]"
23,COC(=O)C(C#N)c1nc2ccccc2nc1N1CCCC1 (stereo not given),inactive
24,CCOc1ccccc1N(CC(=O)NCCSCc1ccco1)S(=O)(=O)c1ccccc1,inactive
25,CC(=O)c1cccc(NC(=O)/C=C/c2ccc([N+](=O)[O-])s2)c1,active: 10 µM

row,SMILES,Potency
1,CCCNC(=O)C1CC(=O)N(c2ccc(OCc3ccc(F)cc3)cc2)C1 (stereo not given),inactive
2,COCc1c(C(=O)OC/C(O)=C(\C#N)c2nc3ccccc3[nH]2)oc2ccccc12,"inconclusive: 10 µM [inhibitor, partial curve]"
3,COc1ccc(NC(=O)c2c(C)nn(Cc3ccccc3)c2C)cc1S(=O)(=O)N(C)C,"inconclusive: 12.6 µM [activator, single point]"
4,COc1ccc(OC)c(N=C(C)C2=C(O)COC2=O)c1,inactive
5,CCc1c(C)sc(NC(=O)c2noc(C)c2[N+](=O)[O-])c1C#N,active: 17.8 µM
6,CCOC(=O)N1CCN(C(=O)Cc2ccc(C)cc2)CC1,inactive
7,O=C(COc1ccccc1-c1ccccc1)NCc1ccco1,"inconclusive: 20 µM [inhibitor, single point]"
8,Cc1nn(-c2ccccc2)c(C)c1NC(=O)COc1ccc(C#N)cc1,inactive
9,O=C(CNc1cccc2ccccc12)N/N=C/c1cccc(Oc2ccccc2)c1,"inconclusive: 20 µM [inhibitor, single point]"
10,O=C(NCCc1cccs1)C1CC(c2cccc([N+](=O)[O-])c2)=NO1 (stereo not given),"inconclusive: 0.251 µM [activator, full curve, poor fit]"
11,COc1ccc(-c2cc(-c3n[nH]c(=S)n3-c3ccccc3OC)[nH]n2)cc1,"inconclusive: 31.6 µM [inhibitor, single point]"
12,S=C(NC1CCCCC1)N1CCOCCOCCN(C(=S)NC2CCCCC2)CCOCC1,active: 11.2 µM
13,O=C(c1ccccc1)c1cccc(NC(=O)c2ccc(Br)o2)c1,"inconclusive: 15.8 µM [activator, single point]"
14,O=C(NC(=S)Nc1ccccn1)c1cncc(Br)c1,active: 7.94 µM
15,CC(C)CNC(=S)Nc1ccccc1F,active: 6.31 µM
16,COc1ccc(C(=O)N2N=C(c3cccc(OC)c3)CC2(O)C(F)(F)F)cc1 (stereo not given),active: 11.2 µM
17,COc1ccccc1CN1CC(C(=O)NCCn2ccc(C)n2)CCC1=O (stereo not given),inactive
18,C=CCOc1ccccc1CN1CCCN(C)CC1,"inconclusive: 8.91 µM [inhibitor, single point]"
19,COc1ccc(/C=N/NC(N)=S)cc1OC(=O)c1ccccc1,active: 12.6 µM
20,Cn1nccc1NS(=O)(=O)c1ccc(C(C)(C)C)cc1,"inconclusive: 11.2 µM [activator, single point]"
21,COc1ccc(OCC(O)CNC(=O)c2cccs2)cc1 (stereo not given),"inconclusive: 8.91 µM [activator, partial curve]"
22,Cc1ccc2c(cnn2C(=O)CCCC(=O)NC(C)c2ccccc2)c1 (stereo not given),inactive
23,Cc1ccc(-c2csc(Nc3ccc(S(N)(=O)=O)cc3)n2)o1,inactive
24,CC(=O)c1ccc(N2CCN(C(=O)CCCn3c(=S)[nH]c4cc5c(cc4c3=O)OCO5)CC2)cc1,active: 11.2 µM
25,COCCNc1nc(-c2c(C)noc2C)nc2ccccc12,inactive
